Test results published in article PMC4906231.
No constants are given. Whether binding was seen depends on the method and setting. Binding seen in cells or lysates may run through a third protein. Some results given as binding are weak or reduced against the parent protein; the word gives no strength.

Protein sequences, listed by entry. Tags and fused reporters are not part of them.
UniProt P49815: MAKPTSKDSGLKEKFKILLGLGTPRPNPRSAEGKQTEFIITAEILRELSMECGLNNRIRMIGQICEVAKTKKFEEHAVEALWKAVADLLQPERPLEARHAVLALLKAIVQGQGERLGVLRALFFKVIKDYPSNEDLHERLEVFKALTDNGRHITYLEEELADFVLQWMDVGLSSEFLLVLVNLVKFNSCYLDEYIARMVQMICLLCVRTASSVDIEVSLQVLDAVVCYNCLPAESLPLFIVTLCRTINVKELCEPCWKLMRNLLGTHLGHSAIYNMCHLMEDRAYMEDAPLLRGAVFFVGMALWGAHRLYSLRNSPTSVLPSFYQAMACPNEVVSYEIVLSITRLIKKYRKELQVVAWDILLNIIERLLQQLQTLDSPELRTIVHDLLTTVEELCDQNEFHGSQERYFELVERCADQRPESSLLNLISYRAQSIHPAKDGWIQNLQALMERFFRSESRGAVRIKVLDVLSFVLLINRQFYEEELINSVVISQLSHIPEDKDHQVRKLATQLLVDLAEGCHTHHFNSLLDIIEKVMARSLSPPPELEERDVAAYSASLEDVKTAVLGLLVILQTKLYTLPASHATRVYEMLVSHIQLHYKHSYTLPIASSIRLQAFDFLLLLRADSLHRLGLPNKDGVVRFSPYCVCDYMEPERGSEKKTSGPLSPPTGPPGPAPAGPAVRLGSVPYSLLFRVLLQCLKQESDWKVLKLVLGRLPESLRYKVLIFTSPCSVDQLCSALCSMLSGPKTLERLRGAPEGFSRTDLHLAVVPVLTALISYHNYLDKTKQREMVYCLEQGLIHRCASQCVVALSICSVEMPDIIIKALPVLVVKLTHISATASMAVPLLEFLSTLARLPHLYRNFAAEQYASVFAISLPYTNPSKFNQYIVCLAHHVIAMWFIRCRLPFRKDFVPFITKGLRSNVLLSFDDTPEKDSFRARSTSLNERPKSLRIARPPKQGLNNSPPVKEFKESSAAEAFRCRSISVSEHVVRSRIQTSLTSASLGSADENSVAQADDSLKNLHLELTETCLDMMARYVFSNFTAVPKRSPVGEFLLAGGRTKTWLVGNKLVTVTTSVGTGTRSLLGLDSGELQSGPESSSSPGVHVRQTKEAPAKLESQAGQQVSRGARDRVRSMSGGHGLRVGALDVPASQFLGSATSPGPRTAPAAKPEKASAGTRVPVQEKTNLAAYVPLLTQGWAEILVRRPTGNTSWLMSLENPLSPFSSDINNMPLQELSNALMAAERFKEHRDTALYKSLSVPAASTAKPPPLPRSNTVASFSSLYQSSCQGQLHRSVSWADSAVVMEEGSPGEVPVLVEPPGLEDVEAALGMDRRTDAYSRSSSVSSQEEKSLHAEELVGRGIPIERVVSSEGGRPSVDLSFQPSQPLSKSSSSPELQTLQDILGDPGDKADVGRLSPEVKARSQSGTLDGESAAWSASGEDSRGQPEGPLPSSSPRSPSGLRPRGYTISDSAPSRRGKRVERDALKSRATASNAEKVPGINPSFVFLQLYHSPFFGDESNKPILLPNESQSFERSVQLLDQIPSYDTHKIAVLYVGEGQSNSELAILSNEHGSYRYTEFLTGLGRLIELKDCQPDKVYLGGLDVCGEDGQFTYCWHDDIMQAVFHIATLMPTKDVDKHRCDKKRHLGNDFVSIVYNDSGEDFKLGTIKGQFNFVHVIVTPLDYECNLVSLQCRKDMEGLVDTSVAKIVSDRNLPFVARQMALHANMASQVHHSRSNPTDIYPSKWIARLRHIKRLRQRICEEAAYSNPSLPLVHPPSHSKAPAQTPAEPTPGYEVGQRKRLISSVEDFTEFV
UniProt O75592: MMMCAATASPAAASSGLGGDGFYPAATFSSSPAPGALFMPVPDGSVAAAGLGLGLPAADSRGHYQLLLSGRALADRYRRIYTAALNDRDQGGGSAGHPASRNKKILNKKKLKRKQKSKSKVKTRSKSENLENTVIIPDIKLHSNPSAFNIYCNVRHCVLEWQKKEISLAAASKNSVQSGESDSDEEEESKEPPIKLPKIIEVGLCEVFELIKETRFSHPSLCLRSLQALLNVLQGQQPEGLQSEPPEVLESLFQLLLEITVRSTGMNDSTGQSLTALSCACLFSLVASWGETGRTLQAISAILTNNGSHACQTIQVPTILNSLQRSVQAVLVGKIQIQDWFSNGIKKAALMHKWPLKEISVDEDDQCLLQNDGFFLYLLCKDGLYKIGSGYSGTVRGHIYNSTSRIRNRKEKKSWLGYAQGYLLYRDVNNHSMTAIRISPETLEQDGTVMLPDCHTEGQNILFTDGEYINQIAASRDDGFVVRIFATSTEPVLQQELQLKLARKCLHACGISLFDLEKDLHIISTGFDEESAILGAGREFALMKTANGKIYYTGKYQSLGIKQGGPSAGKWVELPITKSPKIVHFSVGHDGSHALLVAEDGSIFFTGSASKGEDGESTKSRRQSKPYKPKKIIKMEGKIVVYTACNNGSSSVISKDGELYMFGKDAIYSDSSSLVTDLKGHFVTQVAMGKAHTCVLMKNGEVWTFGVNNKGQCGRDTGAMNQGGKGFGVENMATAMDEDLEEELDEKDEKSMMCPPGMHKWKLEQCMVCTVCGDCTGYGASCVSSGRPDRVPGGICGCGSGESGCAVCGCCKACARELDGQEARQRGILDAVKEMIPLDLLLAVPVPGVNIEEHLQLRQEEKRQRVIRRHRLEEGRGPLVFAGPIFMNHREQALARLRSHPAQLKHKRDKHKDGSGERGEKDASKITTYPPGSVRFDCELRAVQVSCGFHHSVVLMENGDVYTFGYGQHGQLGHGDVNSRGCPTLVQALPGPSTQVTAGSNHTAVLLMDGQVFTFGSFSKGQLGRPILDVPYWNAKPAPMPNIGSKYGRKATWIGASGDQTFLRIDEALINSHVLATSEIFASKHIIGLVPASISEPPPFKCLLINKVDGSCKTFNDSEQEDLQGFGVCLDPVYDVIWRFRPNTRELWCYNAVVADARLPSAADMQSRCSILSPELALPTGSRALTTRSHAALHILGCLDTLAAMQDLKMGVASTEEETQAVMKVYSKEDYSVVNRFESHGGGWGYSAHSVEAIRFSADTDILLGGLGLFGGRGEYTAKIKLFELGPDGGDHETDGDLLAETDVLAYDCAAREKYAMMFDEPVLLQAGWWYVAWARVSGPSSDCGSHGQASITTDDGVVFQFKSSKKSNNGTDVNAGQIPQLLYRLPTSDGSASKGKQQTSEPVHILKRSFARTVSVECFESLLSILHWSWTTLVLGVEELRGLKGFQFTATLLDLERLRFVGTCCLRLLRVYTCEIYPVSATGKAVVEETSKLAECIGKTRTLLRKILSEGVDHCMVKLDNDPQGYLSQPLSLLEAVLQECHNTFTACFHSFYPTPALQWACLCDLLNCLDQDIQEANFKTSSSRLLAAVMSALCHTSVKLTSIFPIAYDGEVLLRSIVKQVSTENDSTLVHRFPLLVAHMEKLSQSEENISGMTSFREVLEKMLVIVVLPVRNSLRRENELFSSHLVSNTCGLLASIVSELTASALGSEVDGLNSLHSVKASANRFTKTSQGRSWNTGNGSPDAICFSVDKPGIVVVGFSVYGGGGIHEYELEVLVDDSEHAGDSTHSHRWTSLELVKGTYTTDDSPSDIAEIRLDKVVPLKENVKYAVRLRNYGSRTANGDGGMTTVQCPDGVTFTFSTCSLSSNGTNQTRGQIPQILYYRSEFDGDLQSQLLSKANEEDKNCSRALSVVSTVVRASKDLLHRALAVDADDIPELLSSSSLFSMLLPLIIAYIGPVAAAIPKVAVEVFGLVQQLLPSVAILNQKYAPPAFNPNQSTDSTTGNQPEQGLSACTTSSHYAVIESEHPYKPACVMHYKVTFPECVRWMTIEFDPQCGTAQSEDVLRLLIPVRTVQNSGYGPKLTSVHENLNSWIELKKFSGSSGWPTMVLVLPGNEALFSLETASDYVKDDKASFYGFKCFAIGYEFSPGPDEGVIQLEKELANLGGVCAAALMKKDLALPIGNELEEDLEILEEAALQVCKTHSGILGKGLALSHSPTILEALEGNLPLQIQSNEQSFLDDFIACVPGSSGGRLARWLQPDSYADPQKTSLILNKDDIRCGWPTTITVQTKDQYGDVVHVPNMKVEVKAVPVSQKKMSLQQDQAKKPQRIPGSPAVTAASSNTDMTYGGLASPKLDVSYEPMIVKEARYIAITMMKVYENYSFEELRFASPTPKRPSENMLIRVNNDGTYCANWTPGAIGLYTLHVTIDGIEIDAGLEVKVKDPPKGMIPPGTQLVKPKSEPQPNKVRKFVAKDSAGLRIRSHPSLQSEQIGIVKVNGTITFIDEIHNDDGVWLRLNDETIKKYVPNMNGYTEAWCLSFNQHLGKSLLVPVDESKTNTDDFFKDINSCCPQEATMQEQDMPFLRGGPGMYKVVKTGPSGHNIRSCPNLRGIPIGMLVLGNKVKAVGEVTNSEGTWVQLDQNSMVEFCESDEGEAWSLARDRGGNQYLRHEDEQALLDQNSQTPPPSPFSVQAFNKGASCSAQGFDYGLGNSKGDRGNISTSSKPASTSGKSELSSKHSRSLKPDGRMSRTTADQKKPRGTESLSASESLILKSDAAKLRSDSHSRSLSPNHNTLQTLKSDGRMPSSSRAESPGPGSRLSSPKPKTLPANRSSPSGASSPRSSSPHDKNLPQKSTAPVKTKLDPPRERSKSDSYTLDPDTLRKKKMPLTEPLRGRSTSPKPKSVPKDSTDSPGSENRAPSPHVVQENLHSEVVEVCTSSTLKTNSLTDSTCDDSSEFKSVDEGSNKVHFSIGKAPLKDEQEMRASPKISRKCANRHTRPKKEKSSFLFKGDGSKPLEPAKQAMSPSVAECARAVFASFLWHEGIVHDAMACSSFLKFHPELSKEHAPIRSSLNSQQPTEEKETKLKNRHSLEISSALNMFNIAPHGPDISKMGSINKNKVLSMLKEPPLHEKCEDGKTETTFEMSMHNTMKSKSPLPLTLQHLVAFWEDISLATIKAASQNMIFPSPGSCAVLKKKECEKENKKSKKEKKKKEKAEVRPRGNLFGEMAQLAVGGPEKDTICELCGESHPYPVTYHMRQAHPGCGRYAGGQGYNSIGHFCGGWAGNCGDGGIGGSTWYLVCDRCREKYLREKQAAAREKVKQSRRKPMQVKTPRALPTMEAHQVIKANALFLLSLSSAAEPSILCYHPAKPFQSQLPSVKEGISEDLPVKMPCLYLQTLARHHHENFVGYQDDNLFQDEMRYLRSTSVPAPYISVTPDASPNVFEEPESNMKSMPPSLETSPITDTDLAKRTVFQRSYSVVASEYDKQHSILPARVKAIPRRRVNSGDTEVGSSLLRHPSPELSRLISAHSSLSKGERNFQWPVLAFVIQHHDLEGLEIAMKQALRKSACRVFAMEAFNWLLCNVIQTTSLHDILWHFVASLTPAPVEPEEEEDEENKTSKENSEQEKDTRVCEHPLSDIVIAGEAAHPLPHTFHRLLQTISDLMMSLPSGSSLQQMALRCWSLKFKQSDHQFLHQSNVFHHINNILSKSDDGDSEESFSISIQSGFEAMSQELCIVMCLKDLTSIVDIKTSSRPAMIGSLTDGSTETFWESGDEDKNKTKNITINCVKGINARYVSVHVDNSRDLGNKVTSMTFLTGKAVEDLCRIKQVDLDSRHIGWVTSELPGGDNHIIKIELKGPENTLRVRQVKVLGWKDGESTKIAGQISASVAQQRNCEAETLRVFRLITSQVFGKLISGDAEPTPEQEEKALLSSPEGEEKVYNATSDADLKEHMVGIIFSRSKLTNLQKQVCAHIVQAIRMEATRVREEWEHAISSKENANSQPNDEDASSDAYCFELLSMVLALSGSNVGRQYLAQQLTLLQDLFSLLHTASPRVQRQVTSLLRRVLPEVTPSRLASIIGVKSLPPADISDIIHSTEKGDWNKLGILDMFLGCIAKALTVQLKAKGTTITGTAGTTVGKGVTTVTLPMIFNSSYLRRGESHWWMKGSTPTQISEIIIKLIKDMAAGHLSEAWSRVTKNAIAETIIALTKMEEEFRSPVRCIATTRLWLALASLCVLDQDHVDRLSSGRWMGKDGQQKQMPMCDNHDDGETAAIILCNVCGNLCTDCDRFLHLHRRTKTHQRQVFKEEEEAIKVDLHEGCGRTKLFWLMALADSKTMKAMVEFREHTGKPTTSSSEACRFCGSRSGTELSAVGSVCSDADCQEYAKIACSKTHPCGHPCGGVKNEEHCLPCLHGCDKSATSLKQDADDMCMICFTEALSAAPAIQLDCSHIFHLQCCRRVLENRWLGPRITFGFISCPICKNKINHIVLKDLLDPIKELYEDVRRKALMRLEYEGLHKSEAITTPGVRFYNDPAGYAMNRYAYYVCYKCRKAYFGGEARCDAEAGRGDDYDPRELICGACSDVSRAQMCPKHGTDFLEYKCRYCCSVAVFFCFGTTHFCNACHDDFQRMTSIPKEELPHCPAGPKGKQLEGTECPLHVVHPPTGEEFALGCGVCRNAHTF

Key:
[1] = molecular target: T1, ATP13A2 (human (endogenous in HeLa)) (UniProt Q9NQ11); experiment: proximity ligation; fixed, permeabilised HeLa cells; primary antibodies against ATP13A2 and MYCBP2; signal when the two proteins are within 40 nm; epifluorescence microscopy
T1 sequence: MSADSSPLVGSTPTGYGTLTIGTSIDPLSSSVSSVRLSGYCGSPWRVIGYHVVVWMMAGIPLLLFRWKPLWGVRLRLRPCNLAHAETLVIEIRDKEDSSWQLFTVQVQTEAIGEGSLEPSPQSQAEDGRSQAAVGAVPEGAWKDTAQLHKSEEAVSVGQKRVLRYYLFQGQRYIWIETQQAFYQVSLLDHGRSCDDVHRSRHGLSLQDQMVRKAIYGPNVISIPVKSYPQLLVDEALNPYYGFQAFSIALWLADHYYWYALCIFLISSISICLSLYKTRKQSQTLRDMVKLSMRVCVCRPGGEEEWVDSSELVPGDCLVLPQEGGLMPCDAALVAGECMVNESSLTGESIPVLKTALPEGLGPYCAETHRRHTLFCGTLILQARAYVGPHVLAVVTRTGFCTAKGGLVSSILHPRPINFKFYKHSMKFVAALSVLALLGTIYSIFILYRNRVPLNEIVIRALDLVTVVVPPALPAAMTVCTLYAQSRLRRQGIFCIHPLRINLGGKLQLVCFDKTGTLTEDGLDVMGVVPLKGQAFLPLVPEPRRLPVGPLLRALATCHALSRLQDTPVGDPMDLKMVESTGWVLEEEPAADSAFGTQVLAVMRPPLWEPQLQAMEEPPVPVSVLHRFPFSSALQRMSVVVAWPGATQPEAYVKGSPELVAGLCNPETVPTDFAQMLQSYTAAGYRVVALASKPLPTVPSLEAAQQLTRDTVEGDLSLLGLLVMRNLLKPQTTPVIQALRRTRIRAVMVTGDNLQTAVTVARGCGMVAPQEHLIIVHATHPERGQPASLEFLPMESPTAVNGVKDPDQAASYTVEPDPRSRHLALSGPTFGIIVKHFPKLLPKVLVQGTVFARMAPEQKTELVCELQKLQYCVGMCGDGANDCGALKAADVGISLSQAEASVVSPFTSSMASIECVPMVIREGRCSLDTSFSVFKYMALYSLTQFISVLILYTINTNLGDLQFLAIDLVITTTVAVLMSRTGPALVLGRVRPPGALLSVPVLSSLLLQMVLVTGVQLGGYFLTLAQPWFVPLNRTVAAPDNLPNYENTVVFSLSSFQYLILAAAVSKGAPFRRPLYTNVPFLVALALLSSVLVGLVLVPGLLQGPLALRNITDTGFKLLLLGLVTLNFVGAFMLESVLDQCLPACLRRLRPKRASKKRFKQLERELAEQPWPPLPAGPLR

[2] = molecular target: T1, ATP13A2 (human (endogenous in HeLa)); experiment: co-IP; endogenous proteins immunoprecipitated from cleared lysates (20 mM Tris-HCl pH 7.2, 150 mM NaCl, 2 mM MgCl2, 0.5% NP-40), antibody overnight at 4 °C, Dynabeads-protein G, three washes, western blot; ATP13A2 IP (Fig. 4b); TSC2 IP from control and ATP13A2-knockdown HeLa cells (Fig. 4i)
[3] = molecular target: Tuberous Sclerosis Complex 2 (TSC2) (human (endogenous in HeLa)) (UniProt P49815); experiment: as above

Measured: binding

MYCBP2 (MYC-Binding Protein 2) (from UniProt O75592 1-4678)
binds: all assays above
